In the supplement of paper PMC7877785:
± gives the uncertainty stated by the source. Many entries were measured with a wide error.

Experiment: self-splicing fitness, log relative to wild type (ln ratio); higher = more splicing; Tetrahymena group I intron in knt gene, E. coli kanamycin selection, DiMSum; sequences stand for … in CUCUCU…GGAGGGAAAAGUUAUCAGGCAUGCACCUGGUAGCUAGUCUUUAAACCAAUAGAUUGCAUCGGUUUAAAAGGCAAGACCGUCAAAUUGCGGGAAAGGGGUCAACAGCCGUUCAGUACCAAGUCUCAGGGGAAACUUUGAGAUGGCCUUGCAAAGGGUAUGGUAAUAAGCUGACGGACAUGGUCCUAACCACGCAGCCAAGUCCUAAGUCAACAGAUCUUCUGUUGAUAUGGAUGCAGUUCACAGACUAAAUGUCGGUCGGGGAAGAUGUAUUCUUCUCAUAAGAUAUAGUCGGACCUCUCCUUAAUGGGAGCUAGCGGAUGAAGUGAUGCAACACUGGAGCCGCUGGGAACUAAUUUGUAUGCGAAAGUAUAUUGAUUAGUUUUGGAGUACUCGUGGUCG
Outline: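 Fitness was computed with DiMSum as the error-weighted combination of replicate fold changes, kanamycin versus none, each normalised to wild type. The library randomised all eight intron nucleotides of the P1ex region, with the intron placed in the knt kanamycin-resistance gene on pET-22b(+) in E. coli BL21(DE3). Six replicate transformations were grown overnight at 37°C or 30°C on LB agar with or without 25 μg/mL kanamycin, plus 100 μg/mL carbenicillin, 50 μM IPTG and 0.2% rhamnose. Pooled colonies were amplicon-sequenced on an Illumina HiSeq 2500.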

Row | Sequence | self-splicing fitness (ln) (30 °C) | self-splicing fitness (ln) (37 °C)
1 | CUGGAGCAAUAUUACGUUUU | -4.3 ± 0.72 | –
2 | UAAGAGCAAUAUUACGAAAU | -3.88 ± 0.53 | -1.61 ± 0.32
3 | UCCAAGCAAUAUUACGCACG | -3.7 ± 0.6 | -2.63 ± 0.54
4 | GCCGAGCAAUAUUACGCGGC | -5.2 ± 0.51 | –
5 | CUGGAGCAAUAUUACGCGCU | – | -2.47 ± 0.75
6 | CAUUAGCAAUAUUACGAGGA | – | -2.55 ± 0.54
7 | GUUUAGCAAUAUUACGAACU | -4.26 ± 1 | -2.69 ± 0.44
8 | AUUGAGCAAUAUUACGUAUG | – | -2.76 ± 0.74
9 | AGGCAGCAAUAUUACGCUCU | – | -1.8 ± 0.6
10 | CAAGAGCAAUAUUACGACCU | – | -1.09 ± 0.67
11 | AUCUAGCAAUAUUACGUUUA | -2.26 ± 0.13 | -2.3 ± 0.13
12 | CUCUAGCAAUAUUACGAACC | – | -3.09 ± 1
13 | CGCGAGCAAUAUUACGCUCU | -1.84 ± 0.58 | –
14 | UCAUAGCAAUAUUACGGCCC | -2.36 ± 1.2 | –
15 | AACAAGCAAUAUUACGAAUC | -3.22 ± 0.17 | -2.24 ± 0.13
16 | GCUGAGCAAUAUUACGCUGU | -4.6 ± 0.72 | –
17 | UCCAAGCAAUAUUACGCGGA | -4.26 ± 1 | -3.47 ± 0.73
18 | GUAAAGCAAUAUUACGCCAC | -5.73 ± 1 | –
19 | CCGGAGCAAUAUUACGCCAA | -1.96 ± 0.87 | –
20 | CGAAAGCAAUAUUACGAUUC | -4.39 ± 0.59 | –
21 | GUCGAGCAAUAUUACGACGC | -0.285 ± 0.68 | -0.44 ± 0.71
22 | AACCAGCAAUAUUACGUCCU | 0.026 ± 0.043 | -0.134 ± 0.053
23 | GCAAAGCAAUAUUACGGGUU | -2.11 ± 0.12 | -1.67 ± 0.16
24 | CCAGAGCAAUAUUACGAUCC | -3.77 ± 0.52 | –

Row | Sequence | self-splicing fitness (ln) (30 °C) | self-splicing fitness (ln) (37 °C)
25 | UCUAAGCAAUAUUACGUGCC | – | -2.98 ± 1.1
26 | GCAGAGCAAUAUUACGCCAC | – | 0.0981 ± 1.2
27 | GGCUAGCAAUAUUACGAGCC | -1.06 ± 0.54 | -0.785 ± 0.93
28 | GCGAAGCAAUAUUACGCCAU | -4.25 ± 0.52 | –
29 | CGAAAGCAAUAUUACGAGAA | – | -2.3 ± 0.57
30 | UUAGAGCAAUAUUACGGUGG | -1.95 ± 0.12 | -0.679 ± 0.13
31 | UAUGAGCAAUAUUACGCCAA | -3.35 ± 0.65 | –
32 | GGGGAGCAAUAUUACGAAUC | – | 1.62 ± 0.74
33 | CUCCAGCAAUAUUACGCCAA | -2.65 ± 0.54 | –
34 | GUUUAGCAAUAUUACGCACA | -0.867 ± 0.12 | -0.0205 ± 0.14
35 | UGUCAGCAAUAUUACGCUGC | -3.54 ± 0.43 | -0.934 ± 0.25
36 | GAGUAGCAAUAUUACGUAGC | – | -3.23 ± 0.6
37 | GGCAAGCAAUAUUACGCGCC | -3.95 ± 0.74 | –
38 | UAUGAGCAAUAUUACGAUUC | -3.97 ± 1 | –
39 | GUCAAGCAAUAUUACGUAUU | -2.98 ± 0.12 | -1.84 ± 0.1
40 | GUGGAGCAAUAUUACGAGGU | -4.44 ± 1 | -2.24 ± 0.69
41 | ACGUAGCAAUAUUACGCGUU | -4.72 ± 0.51 | –
42 | UAAUAGCAAUAUUACGGGAC | -2.77 ± 0.54 | -3.43 ± 0.73
43 | AAAAAGCAAUAUUACGCUUU | -4.64 ± 0.27 | -2.32 ± 0.19
44 | UCUUAGCAAUAUUACGUUCU | -4.12 ± 0.59 | –
45 | UGUGAGCAAUAUUACGCGCG | – | -2.55 ± 0.62
46 | AUGGAGCAAUAUUACGAGUC | – | -1.83 ± 1.1
47 | AGUGAGCAAUAUUACGAAUA | -3.93 ± 0.61 | –
48 | UUCGAGCAAUAUUACGGAAC | -3.85 ± 0.6 | -0.687 ± 0.87

Row | Sequence | self-splicing fitness (ln) (30 °C) | self-splicing fitness (ln) (37 °C)
49 | UUUUAGCAAUAUUACGGUAC | -3.83 ± 0.73 | -2.54 ± 1.1
50 | CCAUAGCAAUAUUACGGUUA | -3.57 ± 0.29 | -2.73 ± 0.21
51 | UUUUAGCAAUAUUACGUCGC | -1.01 ± 0.56 | -0.927 ± 1.2
52 | UAGCAGCAAUAUUACGUCUA | -0.114 ± 0.073 | 0.146 ± 0.084
53 | GUCUAGCAAUAUUACGAUCA | -0.0149 ± 0.51 | -1.66 ± 0.87
54 | GGCCAGCAAUAUUACGGGCC | -2.79 ± 0.53 | -2.18 ± 1.1
55 | CCGUAGCAAUAUUACGACCU | – | 0.354 ± 0.6
56 | GGAAAGCAAUAUUACGAAAA | – | -2.72 ± 0.53
57 | GCUGAGCAAUAUUACGCCUG | – | -2.57 ± 1.1
58 | CUAUAGCAAUAUUACGCCGA | -1.32 ± 0.71 | –
59 | UGAGAGCAAUAUUACGGGGU | -4.04 ± 1.1 | –
60 | UUUAAGCAAUAUUACGGAUG | -1.56 ± 0.1 | -0.852 ± 0.13
61 | CGGUAGCAAUAUUACGCAUC | -4.61 ± 1 | –
62 | GGUGAGCAAUAUUACGCAAA | -1.76 ± 0.6 | -1.71 ± 0.52
63 | ACUGAGCAAUAUUACGACGA | -1.3 ± 0.13 | -0.569 ± 0.12
64 | CGUGAGCAAUAUUACGACAC | – | -2.55 ± 0.76
65 | GUGAAGCAAUAUUACGCGUU | -3.59 ± 0.2 | -2.02 ± 0.21
66 | AAGGAGCAAUAUUACGAGCC | – | -2.64 ± 1.1
67 | CGUGAGCAAUAUUACGGCCG | – | -0.484 ± 0.66
68 | UUGGAGCAAUAUUACGAAAC | -3.88 ± 0.76 | –
69 | GUGGAGCAAUAUUACGUACA | – | -2.79 ± 0.76
70 | CUCGAGCAAUAUUACGGUUU | – | -4.58 ± 0.51
71 | UUGGAGCAAUAUUACGUUCC | -2.62 ± 1.1 | –
72 | UUAUAGCAAUAUUACGGGGG | – | -2.17 ± 0.64

Row | Sequence | self-splicing fitness (ln) (30 °C) | self-splicing fitness (ln) (37 °C)
73 | AGCGAGCAAUAUUACGCGAC | – | -3.25 ± 0.52
74 | CGGAAGCAAUAUUACGGAAC | – | -1.36 ± 0.9
75 | AAGGAGCAAUAUUACGGUAA | -2.71 ± 0.64 | -2.5 ± 0.63
76 | UCAUAGCAAUAUUACGGACC | -3.96 ± 1 | -2.23 ± 1.1
77 | UAGAAGCAAUAUUACGCCAU | – | -2.83 ± 0.53
78 | GUAUAGCAAUAUUACGUACG | -0.281 ± 0.71 | -1.22 ± 0.6
79 | CUAGAGCAAUAUUACGUAUC | -4.44 ± 0.73 | –
80 | CUCCAGCAAUAUUACGGCUG | -2.12 ± 0.22 | -2.99 ± 0.4
81 | UUCAAGCAAUAUUACGUUCC | -3.06 ± 0.76 | –
82 | UUUUAGCAAUAUUACGGGUU | -4.73 ± 0.73 | –
83 | CAGCAGCAAUAUUACGACCC | – | -1.1 ± 0.92
84 | CUGGAGCAAUAUUACGGCCG | – | -1.38 ± 0.56
85 | UGAUAGCAAUAUUACGGUAA | -3.54 ± 0.62 | –
86 | AAUGAGCAAUAUUACGGACA | – | -3.28 ± 0.73
87 | UAGUAGCAAUAUUACGAUAU | -3.37 ± 0.77 | -3.08 ± 0.74
88 | CGAGAGCAAUAUUACGGCCA | -1.08 ± 1 | -1.95 ± 0.79
89 | UCUGAGCAAUAUUACGGGUA | -4.41 ± 0.73 | –
90 | GGCGAGCAAUAUUACGGUAG | -4.89 ± 0.71 | -2.94 ± 0.61
91 | AAAUAGCAAUAUUACGUUGA | -3.3 ± 0.41 | -0.771 ± 0.16
92 | CGUAAGCAAUAUUACGCAGC | -3.12 ± 1.1 | –
93 | GGUAAGCAAUAUUACGAUCC | 0.285 ± 1.1 | –
94 | UAAUAGCAAUAUUACGAAAU | -3.27 ± 0.62 | –
95 | CUGCAGCAAUAUUACGUCAC | – | -2.28 ± 0.58
96 | AACCAGCAAUAUUACGUUUC | -4.08 ± 0.17 | -2.92 ± 0.21

4 entries picked at random from the list so far:
Row | Sequence | self-splicing fitness (ln) (30 °C) | self-splicing fitness (ln) (37 °C)
88 | CGAGAGCAAUAUUACGGCCA | -1.08 ± 1 | -1.95 ± 0.79
90 | GGCGAGCAAUAUUACGGUAG | -4.89 ± 0.71 | -2.94 ± 0.61
83 | CAGCAGCAAUAUUACGACCC | – | -1.1 ± 0.92
89 | UCUGAGCAAUAUUACGGGUA | -4.41 ± 0.73 | –

Following part.

Row | Sequence | self-splicing fitness (ln) (30 °C) | self-splicing fitness (ln) (37 °C)
97 | UAUGAGCAAUAUUACGGAGG | -3.2 ± 0.17 | -2.53 ± 0.29
98 | UCUUAGCAAUAUUACGCCCC | -3.84 ± 0.73 | -1.18 ± 0.92
99 | CUCCAGCAAUAUUACGGUCA | -2.86 ± 0.13 | -1.82 ± 0.13
100 | ACAUAGCAAUAUUACGAUCA | -1.71 ± 0.087 | -0.779 ± 0.098
101 | AGCGAGCAAUAUUACGAAUU | -3.39 ± 1 | –
102 | GGAUAGCAAUAUUACGCUUA | -1.88 ± 0.18 | -0.532 ± 0.15
103 | CAAGAGCAAUAUUACGCUUG | -4.12 ± 1 | –
104 | AAUGAGCAAUAUUACGAAGU | -4.04 ± 1.1 | –
105 | ACUUAGCAAUAUUACGUGAC | -2.05 ± 0.21 | -2.54 ± 0.29
106 | GGCAAGCAAUAUUACGCUGC | – | -2.86 ± 1.1
107 | CUCGAGCAAUAUUACGACCC | -0.939 ± 0.6 | –
108 | CUUCAGCAAUAUUACGCCCC | -2.66 ± 1.1 | –
109 | UUUUAGCAAUAUUACGCCCC | -0.995 ± 1.2 | -0.44 ± 1.4
110 | GAUGAGCAAUAUUACGAAGG | – | -2.99 ± 1
111 | CCGCAGCAAUAUUACGCUGA | – | -4.47 ± 1
112 | GGUGAGCAAUAUUACGAACC | -4.09 ± 0.55 | –
113 | GGCGAGCAAUAUUACGCUCG | – | -2.89 ± 0.53
114 | CCAGAGCAAUAUUACGCUCU | -4.29 ± 1 | -3.11 ± 0.53
115 | CGUUAGCAAUAUUACGGCCC | – | -1.49 ± 0.66
116 | CCACAGCAAUAUUACGAACA | -2.78 ± 0.24 | -2.33 ± 0.29
117 | UGAAAGCAAUAUUACGGGUC | -4.12 ± 1 | –
118 | CAGUAGCAAUAUUACGUACC | -2.47 ± 0.54 | -0.95 ± 0.73
119 | AGAGAGCAAUAUUACGACUA | – | -0.808 ± 0.54
120 | CCUAAGCAAUAUUACGGACC | – | -2.41 ± 0.63
